Experimental data as given in PubChem BioAssay AID1347423 (Functional Genomics Laboratory (NCATS/FGL), 2020).
Among all 52,000 sequences or so, about 210 (0.4%) were called active.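 How the source made its calls: active means gene whose silencing raises cell survival under the drug, median off-target-corrected z-score across its silencing RNAs 2 or more; inactive means the rest.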 Some of the results follow.

Experiment: Resistance to Poly (ADP-Ribose) Polymerase inhibitor: Gene Identification via Genome-wide siRNA Screen
Settings: mouse BRCA2 R2336H ES cells, olaparib, CellTiter-Glo viability; active compounds read high
Summary of the method: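 Mouse BRCA2 R2336H ES cells were reverse-transfected with siRNA (20 nM final), treated at 48 h with 500 nM olaparib, and read by CellTiter-Glo after 72 h. Scores: MAD-based z per siRNA, median per gene, seed off-target correction.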

Q: Which z-score does the source give for UCUUCUAUGGUUCAGGUGCTT against Olfr144 here?
A: inactive: 0.165

Q: With GCAACAUGGCCCUUACCAUTT against Plcb2 as the sequence, how does the z-score read?
A: inactive: -0.797

Q: Which z-score does the source give for GGAGAAGUUUAGUGAAGAATT against AW061290 here?
A: inactive: -2.02

Q: Which z-score does the source give for GGGCCAAUUUAAGUAUAUCTT against Admr here?
A: inactive: 0.738

Q: With GGACGGGAUACUUUAAAGATT against Shfdg1 as the sequence, how does the z-score read?
A: inactive: -2.68

Q: Which z-score does the source give for GGAUGAAUGUCACAACUUCTT against Sema6a here?
A: inactive: -0.937

Q: For GCCAUGUCUUCCUUCUCCATT against Sprr2g, which z-score is on record?
A: inactive: -0.243

Q: Which z-score does the source give for CCCUGUGAUCACUACAUGUTT against Traf7 here?
A: inactive: -0.0623

Q: With CGAUAUUGAUGAUCUAGUCTT against Jmjd2a as the sequence, how does the z-score read?
A: inactive: 0.853

Q: Which z-score does the source give for “GGCAAAGAUAAAAUGCUGATT against 2810417H13Rik” here?
A: inactive: 0.869

Q: For “CCACUACUACUGGUAUGCUTT against 1110012E06Rik”, which z-score is on record?
A: inactive: 0.461

Q: With GGAAGAAAGAAUCAAGCUGTT against Tnfsf14 as the sequence, how does the z-score read?
A: inactive: -1.33

Q: For GGCAAGACAUCAGCUAGUATT against Pcdhgc5, which z-score is on record?
A: inactive: -1.07

Q: For GGUUCUACAGAUGGUGUCUTT against Tnfrsf23, which z-score is on record?
A: inactive: -1.86

Q: For “GCAGAGAAUCGGACUUUCCTT against 1700020O03Rik”, which z-score is on record?
A: inactive: -0.674

Q: For GGUGUUGGAUGGGAUCCCUTT against Rpl13a, which z-score is on record?
A: inactive: -2.67

Q: With CUGAUCCUUCAAUUAACAUTT against Olfr202 as the sequence, how does the z-score read?
A: inactive: -0.835

Q: With GGAAUGAAAUCAAACUUGATT against Amac as the sequence, how does the z-score read?
A: inactive: 0.436

Q: For GGCAAUAAAGUGUAUUGGCTT against Cd3e, which z-score is on record?
A: inactive: -0.0274

Q: For “GGCUUGGAAGGAUUAGAAGTT against 4930418G15Rik”, which z-score is on record?
A: inactive: -0.344

Q: Which z-score does the source give for GGACUUUUCUGAUGAAACATT against Map3k4 here?
A: inactive: -1.32

Q: For GGCCUACGUGCUAAACAUCTT against Atp1b1, which z-score is on record?
A: inactive: -0.147

Q: Which z-score does the source give for GGCAUAUGAUGAUAAGUAATT against P2ry14 here?
A: inactive: -0.412

Q: Which z-score does the source give for GGUGUGGUGGGUUUCUCAUTT against Mcpt2 here?
A: inactive: 0.551

Q: For GCAAUCUUUUAUACGUGCCTT against Cklfsf1, which z-score is on record?
A: inactive: 0.0475

Q: With GAGCAUAGAAACCAUGCACTT against Mte1 as the sequence, how does the z-score read?
A: inactive: 0.914

Q: With CCCGUCUGCAUGCUGAAAATT against MGC65558 as the sequence, how does the z-score read?
A: inactive: 1.27

Q: With GGUCAUUAAGGACUCGAAGTT against Gfap as the sequence, how does the z-score read?
A: inactive: 1.48

Q: Which z-score does the source give for “CGGUGUCGAAGGUUUGGAUTT against 2810484M10Rik” here?
A: inactive: 0.434

Q: Which z-score does the source give for “GCGACCAGCCUGUUGUUGUTT against 7420416P09Rik” here?
A: inactive: 0.0266

Q: With CCCUUUGCAUUCCUACUGATT against LOC433332 as the sequence, how does the z-score read?
A: inactive: -0.382

Q: For CCUUCCUAUGUGAUAACCGTT against Rnh2, which z-score is on record?
A: inactive: 0.179

Q: With GGAGAAUAACAAGAUAGUCTT against Pcdhgb8 as the sequence, how does the z-score read?
A: inactive: -0.157

Q: With GGCCUUUGAGAAGAACAUUTT against Copz1 as the sequence, how does the z-score read?
A: inactive: -2.47

Q: With “GGAGAUGAUUUUGAACUUCTT against 1300010M03Rik” as the sequence, how does the z-score read?
A: inactive: 0.371

Q: Which z-score does the source give for GCUUGCUCCGGUAACAGCATT against Gata6 here?
A: inactive: -0.205

Q: For GGUGCUCAUCGACUGGAUCTT against Parva, which z-score is on record?
A: inactive: -0.356

Q: With GUCUUAUACACGUGUGGACTT against Cklf as the sequence, how does the z-score read?
A: inactive: -1.22

Q: Which z-score does the source give for CCCAAGUGAAAGUAAUGUCTT against Tardbp here?
A: inactive: -0.711

Q: For GCUUAAAGAACUCUAUUCATT against Oaz3, which z-score is on record?
A: inactive: 0.768

Q: For CCGAAGCAUUUUCCCAUCUTT against Gm963, which z-score is on record?
A: inactive: -0.759

Q: With GGGUGUACAGAGGAUCCGATT against Atp2a3 as the sequence, how does the z-score read?
A: inactive: 0.856

Q: Which z-score does the source give for “GGAGGCCUAUUUAAUGGAGTT against 1700094E07Rik” here?
A: inactive: 0.0365

Q: With GCCGAGUGAUAACAGUAGATT against Ndufa10 as the sequence, how does the z-score read?
A: inactive: 0.352

Q: For GGAUCUGUACACAGUUAGUTT against Olfr1123, which z-score is on record?
A: inactive: 0.15

Q: Which z-score does the source give for GGAUUAUCACUGCCUCUUATT against Olfr1446 here?
A: inactive: -0.65

Q: With GGUGGUCAAGAUCUUGGUGTT against Mcoln1 as the sequence, how does the z-score read?
A: inactive: 1.56

Q: For CGUUUUCCACAAAGCAAAATT against Olfr1465, which z-score is on record?
A: inactive: 0.0226

Q: With GCUGUGAAGACGGACAAUATT against Pelo as the sequence, how does the z-score read?
A: inactive: -2.45

Q: With “GGAUUAAAGGCCAUAAGGATT against 6430604K15Rik” as the sequence, how does the z-score read?
A: inactive: 0.36

Q: With “CCAUCCUUCCGAAAGACGATT against 9230112J07Rik” as the sequence, how does the z-score read?
A: inactive: -1.34

Q: With GUCCCUCUUUCUAUGGAGGTT against AY026312 as the sequence, how does the z-score read?
A: inactive: 1.78

Q: Which z-score does the source give for GGGUGACAGGGCAUGAGAATT against H2afy2 here?
A: inactive: 0.15

Q: For GGCAGAUGUCUGAUUUGGUTT against Zfp553, which z-score is on record?
A: inactive: -1.15

Q: With GCCUGUUCAUCGGUUUUAUTT against V1rd3 as the sequence, how does the z-score read?
A: inactive: -0.0378

Q: Which z-score does the source give for CCUUUGCCUUCAGUUUUAUTT against MGC91106 here?
A: inactive: 0.348

Q: Which z-score does the source give for “AUGCGUUUGUCAUGAAUUUTT against C630023L15Rik” here?
A: inactive: 0.396

Q: Which z-score does the source give for GGUGGUGAGCAUCUACUAUTT against Alox5 here?
A: inactive: -0.497

Q: With CGGGCUGAUUCAACUGGUGTT against Kif1b as the sequence, how does the z-score read?
A: inactive: -0.196

Q: Which z-score does the source give for GGUAGACUGUGAAAAUGACTT against Ldlr here?
A: inactive: 2.65

Q: With GGUGAAGUCAUCACUAUUGTT against Trpm2 as the sequence, how does the z-score read?
A: inactive: -0.636

Q: Which z-score does the source give for GCCAAUGGACCACAAACUGTT against Lass6 here?
A: inactive: -0.377

Q: With CGCUGGACUGGAAUACUCATT against Zfp1 as the sequence, how does the z-score read?
A: inactive: -1.25

Q: For GGACAGAUGGAAUAGUGAATT against Klra10, which z-score is on record?
A: inactive: -0.373

Q: With CCAAGAUCCCGUUAAACAATT against Defb3 as the sequence, how does the z-score read?
A: inactive: 1.34

Q: Which z-score does the source give for GCACUUGAAUCGAUUGAAUTT against AW011752 here?
A: inactive: 0.225

Q: Which z-score does the source give for CCAAGAUGGGUUCAUCUCUTT against Cabp5 here?
A: inactive: -0.294

Q: Which z-score does the source give for GGAGCCAGUCCAAAUUGCATT against Il13ra1 here?
A: inactive: 0.0419

Q: With GGGUUCAGACAUGUUGUUATT against Ang1 as the sequence, how does the z-score read?
A: inactive: 0.589

Q: For GAGCUGGCAAUCUUUCUCUTT against Olfr1156, which z-score is on record?
A: inactive: 0.649

Q: For “CGGAUUUCAUGGCUCAAGATT against A930009M04Rik”, which z-score is on record?
A: inactive: 0.503

Q: Which z-score does the source give for “GGACAAGUGAUCUCCAUGGTT against D730040F13Rik” here?
A: inactive: -1.24

Q: With GCAGUGGUUUGAUCUAUUUTT against Cul5 as the sequence, how does the z-score read?
A: inactive: -1.36

Q: Which z-score does the source give for “GCCUGGUUAAGGCAUGAUATT against 4930549O06” here?
A: inactive: 0.725

Q: Which z-score does the source give for GCGACAAAUCGCGCUAUGATT against Grm3 here?
A: inactive: -1.9

Q: For GCCAUAGGCUCAUCUUUACTT against Ankib1, which z-score is on record?
A: inactive: 0.12

Q: With CGCAGACAGAGACAACCUGTT against Casp6 as the sequence, how does the z-score read?
A: inactive: 0.0732

Q: With GCUGAAUGGUCUUGUUACATT against BC043301 as the sequence, how does the z-score read?
A: inactive: -0.0975

Q: With GCUCCGAAUUUUGCUGAUCTT against Galc as the sequence, how does the z-score read?
A: inactive: 0.556

Q: For GGAAAGAUGCCGGAAAAUCTT against Ppp1r14a, which z-score is on record?
A: inactive: 0.479

Q: With GGUUGUGUUUACCAUGAAGTT against Rps6ka6 as the sequence, how does the z-score read?
A: inactive: 1.45

Q: For GGGAAGAAAAUAUGGAAAATT against Isgf3g, which z-score is on record?
A: inactive: -0.345

Q: With GGAGCCACAUGAAACACUATT against Dp1l1 as the sequence, how does the z-score read?
A: inactive: -0.484

Q: Which z-score does the source give for CCUAGAGAGUUAGAAAUAATT against Clpx here?
A: inactive: -0.79

Q: With GCCAAUGAGCAGACUGUAUTT against Sycp1 as the sequence, how does the z-score read?
A: inactive: 0.483

Q: With GGGUAGUUAUACAAACUAATT against Snapc5 as the sequence, how does the z-score read?
A: inactive: 1.4

Q: With CGAUUGUCGGGUUUUGUUUTT against Nutf2 as the sequence, how does the z-score read?
A: inactive: -2.63

Q: With GGUCUAUCAGAUCAUCAAATT against Pde8a as the sequence, how does the z-score read?
A: inactive: 1.84

Q: Which z-score does the source give for GCCGGUUCAACAUCUAAUATT against Fgl2 here?
A: inactive: -0.256

Q: Which z-score does the source give for CCUAUUUUUCUACUAACUGTT against Pkp2 here?
A: inactive: 2.01

Q: Which z-score does the source give for “GCCUUUCUUCUAUUCACUATT against 2210008A03Rik” here?
A: inactive: -0.802

Q: Which z-score does the source give for GCUAGCAGACCUAAACAAGTT against Scap here?
A: inactive: -0.141

Q: For GGAGGAGCUUUACACGGUUTT against Ap1gbp1, which z-score is on record?
A: inactive: -2.1

Q: For GGCCAUCAGAGAAAAGAUATT against Akr1d1, which z-score is on record?
A: inactive: 0.621

Q: Which z-score does the source give for GCCAAAUUGUCCCGGGCAUTT against Usp39 here?
A: inactive: -2.65

Q: With GGAAAGACUUUGAAACUUUTT against Dach2 as the sequence, how does the z-score read?
A: inactive: -0.278

Q: For “GCGUGAGAGAACAACAGACTT against 5830415L20Rik”, which z-score is on record?
A: inactive: 0.215

Q: For GCAGGUGGUUGUUUCUUAGTT against Slco2a1, which z-score is on record?
A: inactive: 0.184

Q: With CCACAGUGGAUUGAUUGUATT against Rnh2 as the sequence, how does the z-score read?
A: inactive: -0.246

Q: With GGUGCUAAGGAGAAGAAGCTT against Plagl2 as the sequence, how does the z-score read?
A: inactive: 1.37

Q: With GGAAAAAAAAAACUGUCUGTT against Pitpnm2 as the sequence, how does the z-score read?
A: inactive: 0.263

Q: With GGGACGUAAAUCAAAUGAATT against P2ry12 as the sequence, how does the z-score read?
A: inactive: 0.644

Q: Which z-score does the source give for GGCUGAAGCAGUUUCAUUUTT against Car5a here?
A: inactive: -1.72

Q: With GGAUCUAUAAGGACUACAUTT against Bmp7 as the sequence, how does the z-score read?
A: inactive: -0.68
